{"source": "PubChem BioAssay AID1259254 (NCATS, 2017)", "purpose": "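Gene knock-downs that lead to re-replication, shown by excess G2 DNA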 (primary screen)", "cells": "human HCT116 colorectal cancer cells", "reagents": "single siRNA against human genes", "time to read-out": "3 days", "measurement": "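Imaged Hoechst DNA stain sorts each cell into a cycle phase by DNA amount; per plate, G2 fraction set to 0% for non-targeting and 100% for GMNN siRNA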", "reading the numbers": "G2 robust z-score and G2 cells, % of GMNN control: higher = more G2 cells, more excess DNA replication", "hit rule": "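Active siRNAs have a G2 robust z of 5 or more median absolute deviations over the median, which in these data means about 38% or higher of GMNN control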", "note": "Shown is a random part of about 59,000 reagents. About 1,550 of them (2.6%) count as active. 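G2 share is only a proxy for re-replication; each gene was hit by three separate siRNAs, and active genes were retested.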 The numbers tell different reagents against one gene apart. Further read-outs or replicates are left out here. The record does not give: the amount of reagent."}
{"Gene": "LOC644215", "reagent": 1, "G2 robust z-score": 0.666, "G2 cells, % of GMNN control": 7.65, "Outcome": "inactive"}
{"Gene": "LOC644215", "reagent": 2, "G2 robust z-score": -0.227, "G2 cells, % of GMNN control": 1.37, "Outcome": "inactive"}
{"Gene": "LOC644215", "reagent": 3, "G2 robust z-score": 1.37, "G2 cells, % of GMNN control": 12.6, "Outcome": "inactive"}
{"Gene": "APOA2", "reagent": 1, "G2 robust z-score": 0.457, "G2 cells, % of GMNN control": 6.18, "Outcome": "inactive"}
{"Gene": "APOA2", "reagent": 2, "G2 robust z-score": 2.94, "G2 cells, % of GMNN control": 23.7, "Outcome": "inactive"}
{"Gene": "APOA2", "reagent": 3, "G2 robust z-score": -0.474, "G2 cells, % of GMNN control": -0.367, "Outcome": "inactive"}
{"Gene": "PPP6R1", "reagent": 1, "G2 robust z-score": -0.086, "G2 cells, % of GMNN control": 2.36, "Outcome": "inactive"}
{"Gene": "PPP6R1", "reagent": 2, "G2 robust z-score": 2.81, "G2 cells, % of GMNN control": 22.7, "Outcome": "inactive"}
{"Gene": "PPP6R1", "reagent": 3, "G2 robust z-score": 0.399, "G2 cells, % of GMNN control": 5.77, "Outcome": "inactive"}
{"Gene": "HNRNPA2B1", "reagent": 1, "G2 robust z-score": 0.231, "G2 cells, % of GMNN control": 4.6, "Outcome": "inactive"}
{"Gene": "HNRNPA2B1", "reagent": 2, "G2 robust z-score": 0.55, "G2 cells, % of GMNN control": 6.84, "Outcome": "inactive"}
{"Gene": "HNRNPA2B1", "reagent": 3, "G2 robust z-score": -0.655, "G2 cells, % of GMNN control": -1.64, "Outcome": "inactive"}
{"Gene": "HMGXB4", "reagent": 1, "G2 robust z-score": 1.01, "G2 cells, % of GMNN control": 10.1, "Outcome": "inactive"}
{"Gene": "HMGXB4", "reagent": 2, "G2 robust z-score": 1.74, "G2 cells, % of GMNN control": 15.2, "Outcome": "inactive"}
{"Gene": "HMGXB4", "reagent": 3, "G2 robust z-score": 2.17, "G2 cells, % of GMNN control": 18.2, "Outcome": "inactive"}
{"Gene": "CDC42", "reagent": 1, "G2 robust z-score": 3.51, "G2 cells, % of GMNN control": 27.6, "Outcome": "inactive"}
{"Gene": "CDC42", "reagent": 2, "G2 robust z-score": 3.12, "G2 cells, % of GMNN control": 24.9, "Outcome": "inactive"}
{"Gene": "CDC42", "reagent": 3, "G2 robust z-score": 1.49, "G2 cells, % of GMNN control": 13.5, "Outcome": "inactive"}

An excerpt from above, reduced to “G2 robust z-score”.
PPP6R1 #3	0.399
HNRNPA2B1 #1	0.231
HNRNPA2B1 #2	0.55

More records follow.
{"Gene": "PLA2G2F", "reagent": 1, "G2 robust z-score": 1.26, "G2 cells, % of GMNN control": 11.8, "Outcome": "inactive"}
{"Gene": "PLA2G2F", "reagent": 2, "G2 robust z-score": -0.0263, "G2 cells, % of GMNN control": 2.78, "Outcome": "inactive"}
{"Gene": "PLA2G2F", "reagent": 3, "G2 robust z-score": -0.943, "G2 cells, % of GMNN control": -3.66, "Outcome": "inactive"}
{"Gene": "ZDBF2", "reagent": 1, "G2 robust z-score": -0.746, "G2 cells, % of GMNN control": -2.28, "Outcome": "inactive"}
{"Gene": "ZDBF2", "reagent": 2, "G2 robust z-score": -0.269, "G2 cells, % of GMNN control": 1.07, "Outcome": "inactive"}
{"Gene": "ZDBF2", "reagent": 3, "G2 robust z-score": -1.13, "G2 cells, % of GMNN control": -5.01, "Outcome": "inactive"}
{"Gene": "PPIC", "reagent": 1, "G2 robust z-score": -0.557, "G2 cells, % of GMNN control": -0.953, "Outcome": "inactive"}
{"Gene": "PPIC", "reagent": 2, "G2 robust z-score": 0.901, "G2 cells, % of GMNN control": 9.3, "Outcome": "inactive"}
{"Gene": "PPIC", "reagent": 3, "G2 robust z-score": 0.267, "G2 cells, % of GMNN control": 4.85, "Outcome": "inactive"}
{"Gene": "RAB41", "reagent": 1, "G2 robust z-score": 0.347, "G2 cells, % of GMNN control": 5.41, "Outcome": "inactive"}
{"Gene": "RAB41", "reagent": 2, "G2 robust z-score": 0.64, "G2 cells, % of GMNN control": 7.47, "Outcome": "inactive"}
{"Gene": "RAB41", "reagent": 3, "G2 robust z-score": -0.793, "G2 cells, % of GMNN control": -2.61, "Outcome": "inactive"}
